Reference: paper PMC11790938
These are yes or no findings as the source states them, for the method shown. Some results given as binding are weak or reduced against the parent protein; the word gives no strength. For some assays here: Where a sequence is shown, tags or fusion partners need not be part of it.

What was measured:
[1] = biological target: T1, human MSR1 expressed from the CD204/MSR1 cDNA ORF clone, N-His tag expression plasmid, in HEK293 and CHO-K1 cells (human) (UniProt P21757); experiment: flow cytometry on cells; uptake of HFt-AF488 (50 μg/ml) within 30 min at 37 °C by HEK293 (or CHO-K1) cells 24 h after transfection with an MSR1 plasmid or a control plasmid; confocal microscopy beside it; only the binder purified
T1 sequence: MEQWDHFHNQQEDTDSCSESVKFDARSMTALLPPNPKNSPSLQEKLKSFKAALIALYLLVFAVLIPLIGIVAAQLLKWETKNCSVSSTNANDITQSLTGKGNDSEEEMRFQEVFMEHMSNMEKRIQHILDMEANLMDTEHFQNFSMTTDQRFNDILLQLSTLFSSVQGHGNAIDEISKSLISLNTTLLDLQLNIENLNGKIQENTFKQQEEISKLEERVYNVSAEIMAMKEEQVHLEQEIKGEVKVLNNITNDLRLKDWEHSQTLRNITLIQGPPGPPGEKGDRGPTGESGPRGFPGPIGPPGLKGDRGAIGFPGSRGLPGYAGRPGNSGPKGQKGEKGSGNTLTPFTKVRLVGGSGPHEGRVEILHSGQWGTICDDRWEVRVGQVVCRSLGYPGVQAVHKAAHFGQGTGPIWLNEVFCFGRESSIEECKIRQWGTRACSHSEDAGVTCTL

[2] = biological target: T2, full-length (wild-type) MSR1 expressed from p-MSR1-mCherry2 in HEK293 cells (human) (UniProt P21757); experiment: as above
T2 sequence: T1 sequence

## human heavy chain ferritin conjugated to Alexa Fluor 488 (HFt-AF488) (from UniProt P02794 1-183)
[1]
  binding: binds
[2]
  binding: binds
